Results reported in paper PMC12392294.
No constants are given. Whether binding was seen depends on the method and setting. Binding seen in cells or lysates may run through a third protein. Some entries that bind do so weakly or less than the wild type.

Chains of the proteins cited; added tags and fusions are not shown.
UniProt Q9HAU4: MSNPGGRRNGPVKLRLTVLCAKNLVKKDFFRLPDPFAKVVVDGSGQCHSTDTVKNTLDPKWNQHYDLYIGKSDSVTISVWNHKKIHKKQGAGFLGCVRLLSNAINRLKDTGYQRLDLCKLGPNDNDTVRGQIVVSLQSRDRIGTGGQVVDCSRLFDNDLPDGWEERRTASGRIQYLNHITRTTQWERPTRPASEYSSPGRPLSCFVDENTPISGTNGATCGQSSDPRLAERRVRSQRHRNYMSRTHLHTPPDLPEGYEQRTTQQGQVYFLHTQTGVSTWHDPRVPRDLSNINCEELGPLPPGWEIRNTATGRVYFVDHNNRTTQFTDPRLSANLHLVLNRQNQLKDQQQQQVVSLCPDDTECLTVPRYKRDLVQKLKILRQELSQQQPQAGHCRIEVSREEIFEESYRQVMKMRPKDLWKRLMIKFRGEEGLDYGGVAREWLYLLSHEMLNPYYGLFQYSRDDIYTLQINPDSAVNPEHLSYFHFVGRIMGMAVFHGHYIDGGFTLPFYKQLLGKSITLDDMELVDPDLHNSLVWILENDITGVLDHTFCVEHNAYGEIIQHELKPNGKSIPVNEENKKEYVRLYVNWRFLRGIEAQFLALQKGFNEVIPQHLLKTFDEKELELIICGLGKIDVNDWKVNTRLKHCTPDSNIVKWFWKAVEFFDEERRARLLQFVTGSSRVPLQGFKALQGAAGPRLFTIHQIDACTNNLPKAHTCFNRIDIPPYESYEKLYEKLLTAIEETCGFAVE
UniProt Q9H4A3: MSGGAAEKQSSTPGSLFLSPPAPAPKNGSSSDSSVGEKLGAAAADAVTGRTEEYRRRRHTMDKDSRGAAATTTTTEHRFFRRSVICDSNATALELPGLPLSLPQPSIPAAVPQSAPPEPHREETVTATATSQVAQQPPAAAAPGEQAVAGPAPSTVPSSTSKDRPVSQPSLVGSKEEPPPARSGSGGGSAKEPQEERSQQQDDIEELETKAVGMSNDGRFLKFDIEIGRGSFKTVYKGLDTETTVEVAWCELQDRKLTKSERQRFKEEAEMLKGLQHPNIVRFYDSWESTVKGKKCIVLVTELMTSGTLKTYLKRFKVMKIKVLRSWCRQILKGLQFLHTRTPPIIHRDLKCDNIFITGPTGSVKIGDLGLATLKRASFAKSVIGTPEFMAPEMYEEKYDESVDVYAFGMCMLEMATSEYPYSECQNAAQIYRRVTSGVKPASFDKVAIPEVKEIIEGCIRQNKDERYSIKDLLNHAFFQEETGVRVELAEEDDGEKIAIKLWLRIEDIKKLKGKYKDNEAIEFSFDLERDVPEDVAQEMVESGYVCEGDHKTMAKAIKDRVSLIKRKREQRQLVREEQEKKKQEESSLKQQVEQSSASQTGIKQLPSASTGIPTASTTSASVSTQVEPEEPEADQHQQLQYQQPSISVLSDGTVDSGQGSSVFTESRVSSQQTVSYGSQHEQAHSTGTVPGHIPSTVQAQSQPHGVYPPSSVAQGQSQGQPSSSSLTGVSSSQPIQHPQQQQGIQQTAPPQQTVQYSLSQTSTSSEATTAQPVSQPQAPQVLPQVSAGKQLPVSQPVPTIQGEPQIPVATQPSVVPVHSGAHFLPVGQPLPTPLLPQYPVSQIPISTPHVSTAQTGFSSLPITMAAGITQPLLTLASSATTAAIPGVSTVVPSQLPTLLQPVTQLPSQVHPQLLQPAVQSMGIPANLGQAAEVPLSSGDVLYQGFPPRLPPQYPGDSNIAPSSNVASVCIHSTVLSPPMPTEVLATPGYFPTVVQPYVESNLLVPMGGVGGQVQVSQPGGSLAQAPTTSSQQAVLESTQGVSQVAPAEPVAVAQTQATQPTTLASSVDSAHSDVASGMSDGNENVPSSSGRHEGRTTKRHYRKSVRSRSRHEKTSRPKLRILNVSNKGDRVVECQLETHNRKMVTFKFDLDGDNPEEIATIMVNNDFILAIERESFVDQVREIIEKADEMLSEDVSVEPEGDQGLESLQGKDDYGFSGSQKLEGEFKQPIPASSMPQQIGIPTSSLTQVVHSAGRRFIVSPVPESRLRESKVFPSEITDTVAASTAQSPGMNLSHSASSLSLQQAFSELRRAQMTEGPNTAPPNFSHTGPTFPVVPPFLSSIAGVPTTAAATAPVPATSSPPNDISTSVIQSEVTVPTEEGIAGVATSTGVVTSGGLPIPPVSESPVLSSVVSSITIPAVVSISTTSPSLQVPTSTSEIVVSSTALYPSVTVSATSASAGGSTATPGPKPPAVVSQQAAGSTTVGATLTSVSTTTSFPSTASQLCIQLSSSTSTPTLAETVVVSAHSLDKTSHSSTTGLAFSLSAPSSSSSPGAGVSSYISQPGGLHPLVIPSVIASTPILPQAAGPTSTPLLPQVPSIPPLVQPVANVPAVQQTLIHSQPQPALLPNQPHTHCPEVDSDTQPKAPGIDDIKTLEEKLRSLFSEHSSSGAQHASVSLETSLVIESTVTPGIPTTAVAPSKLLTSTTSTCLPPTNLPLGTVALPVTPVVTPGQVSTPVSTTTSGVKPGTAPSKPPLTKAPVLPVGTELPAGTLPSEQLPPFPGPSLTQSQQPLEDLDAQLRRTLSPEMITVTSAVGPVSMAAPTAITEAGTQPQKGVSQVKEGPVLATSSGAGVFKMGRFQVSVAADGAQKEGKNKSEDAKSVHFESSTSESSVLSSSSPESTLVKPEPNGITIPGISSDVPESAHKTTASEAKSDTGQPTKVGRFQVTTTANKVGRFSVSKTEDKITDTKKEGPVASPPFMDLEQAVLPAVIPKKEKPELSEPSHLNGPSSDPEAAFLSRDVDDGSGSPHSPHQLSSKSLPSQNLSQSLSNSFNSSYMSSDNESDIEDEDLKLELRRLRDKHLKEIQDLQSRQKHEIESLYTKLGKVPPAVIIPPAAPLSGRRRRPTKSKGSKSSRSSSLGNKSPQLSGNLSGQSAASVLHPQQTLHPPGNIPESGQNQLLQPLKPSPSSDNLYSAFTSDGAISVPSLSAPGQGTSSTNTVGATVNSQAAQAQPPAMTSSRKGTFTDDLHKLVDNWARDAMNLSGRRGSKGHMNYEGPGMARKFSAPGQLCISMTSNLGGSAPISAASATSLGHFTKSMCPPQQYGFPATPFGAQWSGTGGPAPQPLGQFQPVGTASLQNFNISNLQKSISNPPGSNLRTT
UniProt O95747: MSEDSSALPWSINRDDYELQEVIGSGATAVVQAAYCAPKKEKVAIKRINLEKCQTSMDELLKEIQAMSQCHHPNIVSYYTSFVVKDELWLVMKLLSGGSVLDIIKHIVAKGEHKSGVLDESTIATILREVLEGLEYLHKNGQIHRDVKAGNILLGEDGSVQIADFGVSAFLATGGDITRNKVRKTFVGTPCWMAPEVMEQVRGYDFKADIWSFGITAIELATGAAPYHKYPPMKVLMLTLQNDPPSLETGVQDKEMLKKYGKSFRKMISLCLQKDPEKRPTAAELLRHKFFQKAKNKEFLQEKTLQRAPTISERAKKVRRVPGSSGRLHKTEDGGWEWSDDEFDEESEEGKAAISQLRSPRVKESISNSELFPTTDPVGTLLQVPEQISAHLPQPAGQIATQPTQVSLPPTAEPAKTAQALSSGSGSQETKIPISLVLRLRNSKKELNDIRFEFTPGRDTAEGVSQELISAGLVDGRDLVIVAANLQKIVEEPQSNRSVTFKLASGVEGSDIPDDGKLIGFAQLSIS

T1: occludin (human (endogenous in HUVECs or HDMECs)) (UniProt Q16625)
T1 sequence: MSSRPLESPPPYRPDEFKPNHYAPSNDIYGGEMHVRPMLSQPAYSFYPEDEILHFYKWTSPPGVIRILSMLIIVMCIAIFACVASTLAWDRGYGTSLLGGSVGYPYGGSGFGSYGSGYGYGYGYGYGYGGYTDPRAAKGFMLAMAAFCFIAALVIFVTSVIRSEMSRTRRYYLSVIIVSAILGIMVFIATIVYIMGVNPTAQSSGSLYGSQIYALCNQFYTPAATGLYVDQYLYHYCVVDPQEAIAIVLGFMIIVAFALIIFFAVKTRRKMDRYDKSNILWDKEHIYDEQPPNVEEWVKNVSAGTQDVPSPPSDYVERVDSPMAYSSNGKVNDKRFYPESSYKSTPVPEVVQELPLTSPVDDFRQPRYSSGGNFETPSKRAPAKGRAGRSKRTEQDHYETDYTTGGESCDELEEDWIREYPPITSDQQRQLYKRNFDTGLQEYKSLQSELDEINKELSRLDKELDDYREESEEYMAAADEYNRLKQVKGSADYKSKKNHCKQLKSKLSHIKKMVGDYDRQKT


Key:
[1] = target: SMAD Ubiquitination Regulatory Factor 2 (SMURF2) (human (endogenous in HUVECs)) (UniProt Q9HAU4); assay: co-IP; endogenous proteins in endothelial cell lysates; primary antibody overnight at 4 °C, Protein A/G PLUS-Agarose 1 h; IP buffer 50 mM HEPES, 0.1 M NaCl, 0.5 mM EDTA, 1% CHAPS; Western blot; for the occludin co-IP cells treated with WNK463 (1 μM)
[2] = target: T1, occludin (human (endogenous in HUVECs or HDMECs)); assay: as above
[3] = target: protein kinase With No lysine (K) 1 (WNK1) (human (endogenous in HUVECs)) (UniProt Q9H4A3); assay: as above
[4] = target: Oxidative Stress Responsive 1 (OSR1) (human (endogenous in HUVECs)) (UniProt O95747); assay: co-IP; as a1, with the synthetic CCT blocking peptide … (100 µM) co-incubated with the lysate during the immunoprecipitation; only the binder purified

| binding [1] | binding [2] | binding [3] | binding [4] | Molecule |
| --- | --- | --- | --- | --- |
| binds weakly | binds |  |  | Oxidative Stress Responsive 1 (OSR1) (from UniProt O95747 1-527) |
|  | binds | binds |  | SMAD Ubiquitination Regulatory Factor 2 (SMURF2) (from UniProt Q9HAU4 1-748) |
|  |  |  | binds | SAGRRFIVSPVPE [CCT blocking peptide …] |
